# Primary screen of a compound library

The chains behind the UniProt entries cited, without tags or fusion partners. Residues count along the entry.
UniProt Q4DA54, 1-478: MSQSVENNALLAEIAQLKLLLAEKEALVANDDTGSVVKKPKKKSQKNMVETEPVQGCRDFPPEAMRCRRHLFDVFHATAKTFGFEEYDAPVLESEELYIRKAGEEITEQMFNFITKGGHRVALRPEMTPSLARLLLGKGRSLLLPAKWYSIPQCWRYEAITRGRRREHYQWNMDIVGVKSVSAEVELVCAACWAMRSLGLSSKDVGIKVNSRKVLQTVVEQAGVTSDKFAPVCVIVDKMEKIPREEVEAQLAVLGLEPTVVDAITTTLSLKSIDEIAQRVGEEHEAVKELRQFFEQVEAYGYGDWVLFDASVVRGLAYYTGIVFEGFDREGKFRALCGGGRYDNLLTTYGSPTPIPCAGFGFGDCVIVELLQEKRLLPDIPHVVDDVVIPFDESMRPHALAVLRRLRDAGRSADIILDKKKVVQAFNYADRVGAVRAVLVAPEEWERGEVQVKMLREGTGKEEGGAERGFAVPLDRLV
UniProt A4I591, 1-473: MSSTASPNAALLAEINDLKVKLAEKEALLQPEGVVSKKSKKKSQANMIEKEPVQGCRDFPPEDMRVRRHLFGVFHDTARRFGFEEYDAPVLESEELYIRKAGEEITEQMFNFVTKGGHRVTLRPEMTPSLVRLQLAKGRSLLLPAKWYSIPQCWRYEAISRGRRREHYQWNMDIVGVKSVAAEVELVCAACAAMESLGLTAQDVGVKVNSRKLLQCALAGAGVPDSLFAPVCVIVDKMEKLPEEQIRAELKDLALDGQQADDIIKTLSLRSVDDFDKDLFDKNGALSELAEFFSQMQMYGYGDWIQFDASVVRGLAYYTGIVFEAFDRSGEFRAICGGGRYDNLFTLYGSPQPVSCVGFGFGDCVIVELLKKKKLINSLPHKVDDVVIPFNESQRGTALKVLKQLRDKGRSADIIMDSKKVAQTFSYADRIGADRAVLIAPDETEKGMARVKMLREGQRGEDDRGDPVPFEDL
UniProt P9WPC5, whole entry: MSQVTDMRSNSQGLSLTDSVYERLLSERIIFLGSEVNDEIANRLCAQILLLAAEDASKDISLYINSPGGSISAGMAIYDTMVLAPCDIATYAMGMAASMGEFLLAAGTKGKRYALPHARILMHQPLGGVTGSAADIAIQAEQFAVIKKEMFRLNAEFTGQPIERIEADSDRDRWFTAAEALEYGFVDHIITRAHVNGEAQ
UniProt P9WPC3, whole entry partner: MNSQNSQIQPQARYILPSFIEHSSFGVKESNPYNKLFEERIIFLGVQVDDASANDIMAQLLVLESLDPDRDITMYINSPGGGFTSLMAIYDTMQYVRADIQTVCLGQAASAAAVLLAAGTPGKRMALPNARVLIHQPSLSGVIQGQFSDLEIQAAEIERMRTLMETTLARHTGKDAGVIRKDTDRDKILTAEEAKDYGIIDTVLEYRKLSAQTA

The values are deposited in ChEMBL (CHEMBL3988442, “University of Dundee, Small-Polar-MMV Screening Library” (2021)).

Each number is a percent effect as filed.
The controls that fix the scale are not given in the record; negative values are as filed.
The compounds are a random part of those screened.

Toxoplasma: 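Assay of Toxoplasma gondii numbers, read through their beta-galactosidase reporter with a colour substrate. Compounds at 10 µM. Higher reads as fewer parasites (inferred from which compounds were picked for retests). Of about 67,000 compounds tested this way, about 260 (0.38%) reached 50% or more in at least one test.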
Leishmania in macrophages: 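Cell assay of Leishmania donovani living inside macrophages; the read-out is not stated. Concentration: 30 µM. Higher reads as stronger inhibition (inferred: compounds with an IC50 in retests scored well above the rest). Of about 69,000 compounds tested this way, about 1,000 (1.5%) reached 50% or more in at least one test.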
TcHisRS: 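Enzyme assay of histidyl-tRNA synthetase; the read-out is not stated. Target: Histidine-tRNA ligase, Trypanosoma cruzi CL Brener (UniProt Q4DA54). Concentration: 30 µM. The record gives no direction; compounds that gave an IC50 in retests scored well above the rest, so higher reads as stronger inhibition. Size under these conditions: about 69,000 compounds, about 31 of them at 50% or above in at least one test.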
LiHisRS: 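Enzyme assay of histidyl-tRNA synthetase; the read-out is not stated. Target: Histidine-tRNA ligase, Leishmania infantum (UniProt A4I591). Compounds at 30 µM. Higher reads as stronger inhibition (inferred: compounds with an IC50 in retests scored well above the rest). The assay is labelled LdHisRS but filed under L. infantum. About 69,000 compounds were tested under these conditions; 0.6% (about 410) showed 50% or more at least once.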
ClpP1P2: 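Protease assay of ClpP1P2, read by the AMC dye that it sets free. Target: ClpP1P2, Mycobacterium tuberculosis (UniProt P9WPC5 and UniProt P9WPC3). Tested at 50 µM. Direction is inferred from only a few compounds that gave an IC50; most scored high, so higher reads as stronger inhibition. Most other retested compounds had strongly negative values. Size under these conditions: about 69,000 compounds, about 10 of them at 50% or above in at least one test.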
T. brucei: 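Whole-parasite assay of Trypanosoma brucei over 72 hours; the read-out is not stated. Concentration: 30 µM. Direction is inferred from retests: higher values go with stronger inhibition. Values scatter widely below zero; nearly all retest evidence comes from the higher of the two concentrations used. About 64,000 compounds were tested under these conditions; 1.5% (about 940) showed 50% or more at least once.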

Result for Cl.OC1(Cn2ccc3ncccc32)CCN(Cc2ccccn2)CC1 was Toxoplasma: 14.54%; Leishmania in macrophages: -7.367%; T. brucei: -35.99%. Result for C[C@@H](NC(=O)c1cnccn1)c1c(-c2ccc(F)cc2)noc1C(=O)O was Toxoplasma: 1.21%; Leishmania in macrophages: 26.26%; TcHisRS: 3.96%; LiHisRS: 22.22%; ClpP1P2: -0.7234%; T. brucei: -28.03%. Result for Cc1cc(S(=O)(=O)N2CCC(S(C)(=O)=O)CC2)ccc1F was Toxoplasma: -0.3326%; Leishmania in macrophages: 17.53%; TcHisRS: -1.087%; LiHisRS: 16.5%; ClpP1P2: -11.3%; T. brucei: 31.17%. For CC(C)c1nnc2n1CCN(C(=O)c1cc(Cl)c[nH]1)C2 the result was Toxoplasma: -9.967%; Leishmania in macrophages: 25.11%; TcHisRS: 10%; LiHisRS: 23.85%; ClpP1P2: -23.87%. For NC(=O)CN1CCCN(C(=O)c2ccc(SC(F)F)cc2)CC1 the result was Toxoplasma: 0.6352%; Leishmania in macrophages: -2.863%; TcHisRS: 12.12%; LiHisRS: 22.34%; ClpP1P2: 20.26%; T. brucei: -16.27%. For O=C(O)C(F)(F)F.[H][C@@]12CCN(S(=O)(=O)C3CC3)[C@@]1([H])CCN2Cc1cccs1 the result was Toxoplasma: -5.2%; Leishmania in macrophages: 4.748%; T. brucei: -30.32%. CCOc1ncccc1CNC(=O)N1CCC(n2cncn2)CC1 gave Toxoplasma: -11.4%; Leishmania in macrophages: -2.057%; TcHisRS: 2.579%; LiHisRS: 5.263%; ClpP1P2: -8.827%; T. brucei: -10.03%.

With CCOC[C@H]1CC[C@H]2[C@H](CCN2C(=O)c2ccncc2F)O1 the screen gave TcHisRS: 1.695%; LiHisRS: 11.32%; ClpP1P2: -5.966%. For CC1(NC(=O)CNC(=O)C(C)(C)C)CCc2ccccc2C1 (centres undefined) the result was Toxoplasma: -21.86%; Leishmania in macrophages: -6.883%; TcHisRS: -2.679%; LiHisRS: 15.93%; ClpP1P2: -19.33%; T. brucei: -62.08%. With N[C@@H]1c2ccccc2C2(CCN(C(=O)c3ccc(CO)o3)CC2)[C@H]1O the screen gave Toxoplasma: 2.02%; Leishmania in macrophages: 8.481%; TcHisRS: 0%; LiHisRS: 7.547%; ClpP1P2: -9.987%; T. brucei: -45.17%. For O=S(=O)(c1ccccc1)N1CCC2(CCCN2CC2CCCC2)C1 (centres undefined) the result was Toxoplasma: -0.3765%; Leishmania in macrophages: 43.94%; TcHisRS: 14.92%; LiHisRS: 12.03%; ClpP1P2: 4.428%. For O=C(CN1CCc2sccc2C1)Nc1nccs1 the result was Toxoplasma: 7.609%; Leishmania in macrophages: -0.985%; TcHisRS: 12.02%; LiHisRS: 14.63%; ClpP1P2: -5.297%; T. brucei: -28.77%. Nc1ccc(C(=O)N2CCCC(C(=O)CCc3ccccc3)C2)cn1 (centres undefined) read Toxoplasma: -16.89%; Leishmania in macrophages: -7.758%; TcHisRS: -2.439%; LiHisRS: 18.07%; ClpP1P2: -1.617%; T. brucei: 42.45%. With COc1ccccc1C(O)CNC(=O)Nc1ncccc1C (centres undefined) the screen gave Leishmania in macrophages: 39.8%; TcHisRS: 3.008%; LiHisRS: 5.618%; ClpP1P2: -0.02456%; T. brucei: 7.835%.

For CN(C)CCN1C(=O)CCC12CCCN(C(=O)c1cccnc1)CC2.O=C(O)C(F)(F)F.O=C(O)C(F)(F)F (centres undefined) the result was Toxoplasma: -5.038%; Leishmania in macrophages: 13.06%; T. brucei: -25.41%.

The first 2 entries again:

{"structure": "Cl.OC1(Cn2ccc3ncccc32)CCN(Cc2ccccn2)CC1", "Toxoplasma": 14.54, "Leishmania in macrophages": -7.367, "T. brucei": -35.99}
{"structure": "C[C@@H](NC(=O)c1cnccn1)c1c(-c2ccc(F)cc2)noc1C(=O)O", "Toxoplasma": 1.21, "Leishmania in macrophages": 26.26, "TcHisRS": 3.96, "LiHisRS": 22.22, "ClpP1P2": -0.7234, "T. brucei": -28.03}